For the experiment, the target named is human Cannabinoid Receptor 1 (CB1R) (Homo sapiens, UniProt P21554). As to the kind of experiment: CB1R yeast biosensor signaling assay (ZsGreen reporter, flow cytometry). Format: cell-based.

Sequences of proteins named here, by UniProt entry; tags and fusion partners are left off. Residues count along the entry.
UniProt P21554, whole entry: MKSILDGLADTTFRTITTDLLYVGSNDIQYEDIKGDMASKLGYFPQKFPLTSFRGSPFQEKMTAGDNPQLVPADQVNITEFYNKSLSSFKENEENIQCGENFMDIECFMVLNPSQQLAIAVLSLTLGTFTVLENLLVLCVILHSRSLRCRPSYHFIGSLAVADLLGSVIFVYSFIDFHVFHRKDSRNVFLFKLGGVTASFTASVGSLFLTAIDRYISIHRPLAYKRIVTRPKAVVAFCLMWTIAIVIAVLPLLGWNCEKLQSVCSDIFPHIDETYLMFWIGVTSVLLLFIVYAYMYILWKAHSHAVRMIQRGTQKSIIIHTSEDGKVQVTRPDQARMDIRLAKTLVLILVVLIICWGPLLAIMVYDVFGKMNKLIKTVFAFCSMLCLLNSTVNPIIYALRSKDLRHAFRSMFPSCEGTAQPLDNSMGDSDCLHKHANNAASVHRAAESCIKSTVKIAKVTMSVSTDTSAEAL
UniProt P21554, 90-472 limits assumed: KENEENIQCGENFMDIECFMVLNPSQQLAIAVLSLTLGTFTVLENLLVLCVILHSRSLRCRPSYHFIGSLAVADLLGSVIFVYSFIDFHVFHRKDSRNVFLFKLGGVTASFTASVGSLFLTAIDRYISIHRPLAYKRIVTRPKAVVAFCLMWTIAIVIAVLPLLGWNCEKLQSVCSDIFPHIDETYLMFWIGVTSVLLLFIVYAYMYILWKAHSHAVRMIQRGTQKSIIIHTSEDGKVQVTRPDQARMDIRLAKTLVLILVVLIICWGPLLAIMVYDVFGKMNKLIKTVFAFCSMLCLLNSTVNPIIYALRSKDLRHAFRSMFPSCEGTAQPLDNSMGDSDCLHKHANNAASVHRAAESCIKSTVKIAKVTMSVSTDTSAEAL

Some entries of the source have several records that differ or are many. This list holds those alone. The source may hold further records. The records of an entry differ, and nothing given here explains why; dose, time, organism, isomer or construct need not be as stated for each record.

The record followed here is patent US20250027072A1, “METHODS AND COMPOSITIONS RELATED TO ENGINEERED CANNABINOID RECEPTORS” (priority 2021, published 2025).

One may read the EC50 as the midpoint of the concentration-response curve. A lower EC50 goes with an effect from little substance.

With `CCCCC/C=C\C/C=C\C/C=C\C/C=C\CCCC(=O)NCCCl` [ACEA], the EC50 was 145 nM and 36.6 nM; the “on/off ratio (fold activation)” value was < 4 fold and approximately 7 fold and 15 fold and 28 fold.
